Measurements published in PubChem BioAssay AID286 (DTP/NCI, 2004).
The list shows only some results of the screen, not a fair sample: it gathers tests that were run many times, whatever their T/C, doses with no T/C, and many T/C values between a quarter and a half above the control. Further doses and runs are listed elsewhere. T/C: endpoint of the treated group in % of that of the vehicle group. Some entries give survivors of the animals treated and no T/C: the source files T/C as zero there, which appears to mark a toxic dose or a test without result, not a measured value. Some doses without a T/C left all or most animals alive at the check, yet need not have been tolerated: survival well below the control is almost never listed, so the zero probably covers shortened survival too. Counts of survivors are from the toxicity check (mostly the fifth day) where no day follows; animals may have died later. Schedule codes are those of the source, read here as Q, the interval in days (D) or hours (H), X, the number of doses. Some entries hold several experiments; the values are given in rising order. For survival time, the PubChem record calls one and a half times the control and up active, and a quarter to a half above the control has no call in these data; cut-offs in other NCI protocols can differ. Some T/C values are followed by the survivors on the day toxicity was checked, most often the fifth; without a count, all were alive then. Brackets with × stand for listed records that agree. Starred links: 1 amine or outer side, 2 acyl side, 3 side chain; linkers in the order of their positions; H or OH if unused. Positions of bridges follow the written chain, without caps; N, C: chain ends. Non-standard residues stand in square brackets, D forms with d. Residues, ends and D or L forms follow the SMILES beside them. Chains are numbered I, II in the order given. Actinocin(9to1) = Cc1c2oc3c(C)ccc(C(=O)[*:1])c3nc-2c(C(=O)[*:2])c(N)c1=O; aThr = C[C@H](O)[C@H](N)C(=O)O; NMeV = CN[C@H](C(=O)O)C(C)C; Sar = CNCC(=O)O

Test system: BDF1 mice, M5076 sarcoma ip, median survival T/C
Experiment: NCI In Vivo Anticancer Drug Screen. Data for tumor model Sarcoma M5076 (intraperitoneal) in B6D2F1 (BDF1) mice
Settings: T/C endpoint: median survival time, higher T/C = longer survival
Description: The antitumor activity of compounds was measured in mice bearing transplantable tumors. Survival or tumor size were measured and the results are expressed as the measurement made in the treated group (T) divided by the measurement made in the vehicle treated control group (C). The tumor model used in this assay is Sarcoma M5076 (intraperitoneal) in B6D2F1 (BDF1) mice

[1] = dose: 160.0 mg/kg/injection, schedule: Q04DX005 (ip), vehicle: saline
[2] = dose: 25.0 mg/kg/injection, schedule: Q04DX004 (ip), vehicle: saline
[3] = dose: 50.0 mg/kg/injection, schedule: Q04DX004 (ip), vehicle: saline
[4] = dose: 50.0 mg/kg/injection, schedule: Q04DX005 (ip), vehicle: saline
[5] = dose: 100.0 mg/kg/injection, schedule: Q04DX004 (ip), vehicle: saline
[6] = dose: 100.0 mg/kg/injection, schedule: Q04DX005 (ip), vehicle: saline
[7] = dose: 24.0 mg/kg/injection, schedule: Q04DX005 (ip), vehicle: Klucel (hydroxypropylcellulose) (HPC)

## Cc1c2ccncc2c(C)c2c1[nH]c1ccccc12
dose: 5.0 mg/kg/injection, schedule: Q04DX004 (ip), vehicle: saline with Tween-80
  T/C: 134 % of control
dose: 10.0 mg/kg/injection, schedule: Q04DX004 (ip), vehicle: saline with Tween-80
  T/C: 139 % of control
dose: 20.0 mg/kg/injection, schedule: Q04DX004 (ip), vehicle: saline with Tween-80
  T/C: 143 % of control
dose: 160.0 mg/kg/injection, schedule: Q04DX004 (ip), vehicle: saline with Tween-80
  survivor count: 8 of 8 on day 9

## Cc1c2oc3c(C)ccc(C(=O)N[C@@H]4C(=O)N[C@H](C(C)C)C(=O)N5CCC[C@H]5C(=O)N(C)CC(=O)N(C)[C@@H](C(C)C)C(=O)O[C@H]4C)c3nc-2c(C(=O)N[C@@H]2C(=O)N[C@H](C(C)C)C(=O)N3CCC[C@H]3C(=O)N(C)CC(=O)N(C)[C@@H](C(C)C)C(=O)O[C@H]2C)c(N)c1=O (I: [aThr][dV]P[Sar][NMeV] / II: [aThr][dV]P[Sar][NMeV]; ester I:1-I:C, II:1-II:C; linker I:N-II:N via Actinocin(9to1))
dose: 0.03 mg/kg/injection, schedule: Q04DX004 (ip), vehicle: saline + alcohol
  T/C: 126 % of control
dose: 0.05 mg/kg/injection, schedule: Q04DX004 (ip), vehicle: saline + alcohol
  T/C: 147 % of control
dose: 0.4 mg/kg/injection, schedule: Q04DX004 (ip), vehicle: saline + alcohol
  survivor count: 8 of 8 on day 9
dose: 0.8 mg/kg/injection, schedule: Q04DX004 (ip), vehicle: saline + alcohol
  survivor count: 2 of 8 on day 9

## O=P1(N(CCCl)CCCl)NCCCO1 (stereo unspecified)
dose: 10.0 mg/kg/injection, schedule: Q04DX005 (ip), vehicle: saline
  T/C: 126 % of control
dose: 20.0 mg/kg/injection, schedule: Q04DX004 (ip), vehicle: saline
  T/C: 105, 113, 114, 118, 119 % of control
dose: 20.0 mg/kg/injection, schedule: Q04DX005 (ip), vehicle: saline, evaluated on day 75
  T/C: 102, 116, 119, 120, 121 % of control
dose: 20.0 mg/kg/injection, schedule: Q04DX005 (ip), vehicle: saline, evaluated on day 90
  T/C: 129 % of control
dose: 20.0 mg/kg/injection, schedule: Q04DX005 (ip), vehicle: saline, evaluated on day 100
  T/C: 180 % of control
dose: 40.0 mg/kg/injection, schedule: Q04DX004 (ip), vehicle: saline, evaluated on day 60
  T/C: 132, 166, 234, 241 % of control
dose: 40.0 mg/kg/injection, schedule: Q04DX004 (ip), vehicle: saline, evaluated on day 75
  T/C: 112, 124, 138, 149, 159 % of control
dose: 40.0 mg/kg/injection, schedule: Q04DX005 (ip), vehicle: saline, evaluated on day 75
  T/C: 119, 139, 146, 165, 169 % of control
dose: 40.0 mg/kg/injection, schedule: Q04DX005 (ip), vehicle: saline, evaluated on day 90
  T/C: 179 % of control
dose: 40.0 mg/kg/injection, schedule: Q04DX005 (ip), vehicle: saline, evaluated on day 100
  T/C: 253 % of control
dose: 80.0 mg/kg/injection, schedule: Q04DX004 (ip), vehicle: saline, evaluated on day 60
  T/C: 207, 214, 221, 260 % of control
dose: 80.0 mg/kg/injection, schedule: Q04DX004 (ip), vehicle: saline, evaluated on day 75
  T/C: 156, 182, 188, 195, 224 % of control
dose: 80.0 mg/kg/injection, schedule: Q04DX005 (ip), vehicle: saline, evaluated on day 75
  T/C: 99, 170, 196, 208, 242 % of control
dose: 80.0 mg/kg/injection, schedule: Q04DX005 (ip), vehicle: saline, evaluated on day 90
  T/C: 245 % of control
dose: 80.0 mg/kg/injection, schedule: Q04DX005 (ip), vehicle: saline, evaluated on day 100
  T/C: 95 % of control
dose: 160.0 mg/kg/injection, schedule: Q04DX004 (ip), vehicle: saline, evaluated on day 60
  T/C: 237, 260, 263, 284 % of control
dose: 160.0 mg/kg/injection, schedule: Q04DX004 (ip), vehicle: saline, evaluated on day 75
  T/C: 88, 98 (2×), 210, 282 % of control
[1]
  T/C: 86, 106, 219 [9 of 10 alive on day 9], 327 % of control
  survivor count: 2 of 8 on day 17 and 9 of 10 on day 9

## CN(C)c1nc(N(C)C)nc(N(C)C)n1
dose: 50.0 mg/kg/injection, schedule: Q04DX005 (ip), vehicle: Klucel (hydroxypropylcellulose) (HPC)
  T/C: 147 % of control
dose: 320.0 mg/kg/injection, schedule: Q04DX005 (ip), vehicle: Klucel (hydroxypropylcellulose) (HPC)
  survivor count: 3 of 8 on day 17
dose: 640.0 mg/kg/injection, schedule: Q04DX005 (ip), vehicle: Klucel (hydroxypropylcellulose) (HPC)
  survivor count: 0 of 8 on day 17

## CN(C)C(=O)c1cccc(COc2ccc(N3C(N)=NC(N)=NC3(C)C)cc2Cl)c1
dose: 6.25 mg/kg/injection, schedule: Q04DX004 (ip), vehicle: saline
  T/C: 96, 101 (2×), 102 % of control
dose: 6.25 mg/kg/injection, schedule: Q04DX005 (ip), vehicle: saline
  T/C: 95 (2×), 99, 108 % of control
dose: 12.5 mg/kg/injection, schedule: Q04DX004 (ip), vehicle: saline
  T/C: 99, 101 (2×), 105 % of control
dose: 12.5 mg/kg/injection, schedule: Q04DX005 (ip), vehicle: saline
  T/C: 93, 95, 99, 109 % of control
[2]
  T/C: 96, 101, 102 % of control
  survivor count: 8 of 10 on day 9
dose: 25.0 mg/kg/injection, schedule: Q04DX005 (ip), vehicle: saline
  T/C: 100, 102, 103, 116 % of control
[3]
  T/C: 97, 102 [8 of 10 alive on day 9], 125 % of control
  survivor count: 3 of 10 on day 9
[4]
  T/C: 97, 97 [9 of 10 alive on day 9], 99 % of control [9 of 10 alive on day 9]
  survivor count: 5 of 10 on day 9
[5]
  T/C: 116 % of control
  survivor count: 0 of 10 on day 9
[6]
  T/C: 100 % of control
  survivor count: 0 of 10 on day 9

## CC1CCC(NC(=O)N(CCCl)N=O)CC1 (stereo unspecified)
dose: 3.0 mg/kg/injection, schedule: Q04DX004 (ip), vehicle: Klucel (hydroxypropylcellulose) (HPC)
  T/C: 143 % of control [9 of 10 alive on day 9]
dose: 3.0 mg/kg/injection, schedule: Q04DX005 (ip), vehicle: Klucel (hydroxypropylcellulose) (HPC)
  T/C: 119, 142, 186, 200 % of control
dose: 6.0 mg/kg/injection, schedule: Q04DX005 (ip), vehicle: Klucel (hydroxypropylcellulose) (HPC)
  T/C: 175, 183, 295, 320 % of control [9 of 10 alive on day 9]
dose: 12.0 mg/kg/injection, schedule: Q04DX005 (ip), vehicle: Klucel (hydroxypropylcellulose) (HPC)
  T/C: 157, 216, 233, 320 % of control
[7]
  T/C: 102, 216, 320 % of control
  survivor count: 10 of 10 on day 9

## N[C@H](C(=O)O)[C@@H]1CC(Cl)=NO1
dose: 60.0 mg/kg/injection, schedule: Q04DX005 (ip), vehicle: saline
  T/C: 136 % of control
dose: 240.0 mg/kg/injection, schedule: Q04DX005 (ip), vehicle: saline
  survivor count: 4 of 8 on day 17
dose: 480.0 mg/kg/injection, schedule: Q04DX005 (ip), vehicle: saline
  survivor count: 2 of 8 on day 17

## COc1cc2c(cc1OC)C1C(=O)c3ccc4c(c3OC1CO2)CC(C(C)(O)CO)O4 (stereo unspecified)
dose: 16.0 mg/kg/injection, schedule: Q01DX009 (ip), vehicle: DMSO
  survivor count: 0 of 10 on day 9
dose: 32.0 mg/kg/injection, schedule: Q01DX009 (ip), vehicle: DMSO
  survivor count: 0 of 10 on day 9
